Results as given in patent US5683985.

Chains of the proteins cited; added tags and fusions are not shown. Lines headed by an entry give the natural chain unless they say otherwise; changes in a name come on top.
UniProt P15337: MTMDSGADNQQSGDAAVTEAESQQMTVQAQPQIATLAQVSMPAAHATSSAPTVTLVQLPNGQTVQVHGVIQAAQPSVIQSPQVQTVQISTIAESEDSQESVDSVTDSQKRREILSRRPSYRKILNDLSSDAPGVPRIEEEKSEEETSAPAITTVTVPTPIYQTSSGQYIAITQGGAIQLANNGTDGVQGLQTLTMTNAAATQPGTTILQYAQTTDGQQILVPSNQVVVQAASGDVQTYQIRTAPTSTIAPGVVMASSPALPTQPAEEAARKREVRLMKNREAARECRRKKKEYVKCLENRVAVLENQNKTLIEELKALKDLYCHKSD

What was measured:
JUN = assay: EMSA; settings: 100 mM KCl, purified recombinant protein, label: 32P
[1] = molecular target: CREB (CRE-BP) in PC12 nuclear extract (UniProt P15337); assay: EMSA; settings: crude nuclear extract, protein in an extract
[2] = test system: AP-1 proteins (JUN/FOS) in PC12 nuclear extract; assay: binding assay; settings: K2PtCl4 crosslinking, protein in an extract, label: 32P, folded or branched DNA
[3] = label: 5'-32P, folded or branched DNA

**Q.** Does “ACTCTCTGTGTCTGACTCATGCTCTCTCAGCATGAGTCAGACAC [ligTRE dumbbell]” bind (JUN; 12.5 mM MgCl2, 50 mM Tris pH 7.9, crosslinks at ~15% of ligTRE(s)6 at 2 mM K2PtCl4, folded or branched …)?
**A.** Result: binds

**Q.** Does “GTAACTCTCTTACCATGACGTCAATTTCTCTCAAATTGACGTCATG [ligCRE dumbbell]” bind ([1]; more efficient than other oligomers, label: 32P, folded or branched DNA)?
**A.** Result: binds

**Q.** Does “AAATTGACGTCATGGTAACTCTCTTACCATGACGTCAATTT [CRE 41-mer hairpin]” bind [1, 3]?
**A.** Result: binds

**Q.** Does “AAATTGACGTCATGGTAA (double strand) [CRE 18-mer duplex]” bind ([1]; label: 5'-32P)?
**A.** Result: binds

**Q.** Does “GTAACTCTCTTACCATGACGTCAATTTCTCTCAAATTGACGTCATG [ligCRE(s)6 dumbbell]” bind ([2]; PS at 6 linkages within the octamer (T(s)GAC(s)GTC(s)A on both strands), major band co-migrates with ligTRE(s)6-JUN product, variant of ligCRE dumbbell)?
**A.** Result: binds

**Q.** Does “ACTCTCTGTGTCTGACTCATGCTCTCTCAGCATGAGTCAGACAC [ligTRE(s)6 dumbbell]” bind (JUN; PS at 6 linkages within the recognition sequence, PS does not diminish binding, 12.5 mM MgCl2, pH 7.9, folded or branched DNA, variant of ligTRE dumbbell)?
**A.** Result: binds

**Q.** Does “ACTCTCTGTGTCTGACTCATGCTCTCTCAGCATGAGTCAGACAC [ligTRE(s)6 dumbbell]” bind ([2]; PS at 6 linkages within the recognition sequence, major band co-migrates with JUN adduct, variant of ligTRE dumbbell)?
**A.** Result: binds

**Q.** Does “GTAACTCTCTTACCATGACGTCAATTTCTCTCAAATTGACGTCATG [CRE 46-mer nicked dumbbell]” bind [1, 3]?
**A.** Result: binds

For some assays here: At least one result comes from cells or an extract, where the contact may be indirect. For some assays here: For at least one entry, the source does not settle the construct or the ends of the probe.
